# Measured values taken from PubChem BioAssay (EPA / NIEHS).
# Protein sequences, listed by entry. Tags and fused reporters are not part of them. Lines headed by an entry give the natural chain unless they say otherwise; changes in a name come on top.
# UniProt P24530: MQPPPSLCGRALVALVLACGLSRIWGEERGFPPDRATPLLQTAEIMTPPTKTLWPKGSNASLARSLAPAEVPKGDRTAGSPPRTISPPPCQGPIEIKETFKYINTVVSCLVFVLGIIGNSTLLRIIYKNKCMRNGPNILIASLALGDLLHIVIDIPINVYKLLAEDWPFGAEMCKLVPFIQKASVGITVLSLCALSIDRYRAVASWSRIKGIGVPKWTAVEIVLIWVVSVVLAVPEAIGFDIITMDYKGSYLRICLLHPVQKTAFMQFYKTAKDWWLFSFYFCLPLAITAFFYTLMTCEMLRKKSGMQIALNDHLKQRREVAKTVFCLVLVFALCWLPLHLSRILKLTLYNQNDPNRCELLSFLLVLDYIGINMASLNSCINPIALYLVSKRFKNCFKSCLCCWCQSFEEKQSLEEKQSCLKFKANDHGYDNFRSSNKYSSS
# UniProt P35367, whole entry, looked up: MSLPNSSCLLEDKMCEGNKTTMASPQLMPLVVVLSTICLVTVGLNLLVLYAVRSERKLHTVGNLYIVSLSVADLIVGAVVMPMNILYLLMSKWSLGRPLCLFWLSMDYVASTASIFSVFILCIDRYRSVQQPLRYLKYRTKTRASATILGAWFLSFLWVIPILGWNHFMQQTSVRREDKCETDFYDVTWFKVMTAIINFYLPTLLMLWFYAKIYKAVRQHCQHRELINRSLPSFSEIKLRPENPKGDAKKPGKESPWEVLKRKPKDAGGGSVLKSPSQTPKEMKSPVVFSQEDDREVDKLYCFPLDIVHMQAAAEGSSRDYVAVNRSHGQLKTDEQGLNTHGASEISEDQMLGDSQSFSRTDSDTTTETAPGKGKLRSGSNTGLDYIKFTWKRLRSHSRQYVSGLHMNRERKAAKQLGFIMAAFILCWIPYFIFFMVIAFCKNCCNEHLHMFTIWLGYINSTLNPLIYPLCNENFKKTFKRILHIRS
# UniProt P21728, whole entry, looked up: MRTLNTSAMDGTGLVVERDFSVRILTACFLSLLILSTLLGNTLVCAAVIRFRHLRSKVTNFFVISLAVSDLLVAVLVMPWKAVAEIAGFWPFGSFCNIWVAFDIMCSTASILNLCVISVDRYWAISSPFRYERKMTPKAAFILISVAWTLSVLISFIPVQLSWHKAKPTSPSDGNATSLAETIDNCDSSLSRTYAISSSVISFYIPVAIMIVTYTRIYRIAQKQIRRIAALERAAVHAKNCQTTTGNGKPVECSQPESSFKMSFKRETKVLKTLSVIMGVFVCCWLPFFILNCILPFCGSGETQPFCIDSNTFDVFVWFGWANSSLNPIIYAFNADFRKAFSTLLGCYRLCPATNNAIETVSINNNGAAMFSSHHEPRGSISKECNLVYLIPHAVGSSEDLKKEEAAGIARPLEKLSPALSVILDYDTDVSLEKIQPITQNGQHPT
# UniProt Q15722: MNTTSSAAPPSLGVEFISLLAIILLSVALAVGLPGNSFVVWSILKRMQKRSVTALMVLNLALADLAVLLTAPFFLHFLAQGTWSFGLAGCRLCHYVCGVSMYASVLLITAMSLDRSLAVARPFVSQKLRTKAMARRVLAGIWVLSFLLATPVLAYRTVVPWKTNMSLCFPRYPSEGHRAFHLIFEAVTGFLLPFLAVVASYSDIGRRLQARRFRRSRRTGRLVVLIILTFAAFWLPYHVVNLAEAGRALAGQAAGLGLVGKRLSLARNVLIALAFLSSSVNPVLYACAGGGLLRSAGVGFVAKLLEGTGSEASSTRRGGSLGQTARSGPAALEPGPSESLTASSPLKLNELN
# UniProt P20309, whole entry, looked up: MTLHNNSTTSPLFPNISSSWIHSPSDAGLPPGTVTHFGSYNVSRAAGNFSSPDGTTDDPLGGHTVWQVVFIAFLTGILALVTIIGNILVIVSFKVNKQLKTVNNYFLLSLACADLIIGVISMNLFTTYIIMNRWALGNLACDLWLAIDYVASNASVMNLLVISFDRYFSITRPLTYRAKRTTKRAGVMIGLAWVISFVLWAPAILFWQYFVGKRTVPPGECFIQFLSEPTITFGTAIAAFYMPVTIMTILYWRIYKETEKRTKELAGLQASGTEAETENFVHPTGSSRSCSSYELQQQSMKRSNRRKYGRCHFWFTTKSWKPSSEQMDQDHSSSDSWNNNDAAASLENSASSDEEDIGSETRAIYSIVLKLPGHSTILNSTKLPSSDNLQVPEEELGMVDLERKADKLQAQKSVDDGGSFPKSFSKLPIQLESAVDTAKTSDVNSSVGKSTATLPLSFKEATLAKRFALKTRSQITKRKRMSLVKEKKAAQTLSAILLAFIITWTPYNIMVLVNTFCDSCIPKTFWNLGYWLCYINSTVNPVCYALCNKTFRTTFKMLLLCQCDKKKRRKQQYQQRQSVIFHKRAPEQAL
# The shares of active, inactive and inconclusive entries below differ from those in the screen. Where the call is inconclusive, the potency comes from a doubtful curve fit. Activity calls are given as the source filed them. How the source made its calls: active means hit-call score of the fitted dose curve at least 0.9, where 1 is the maximum; inconclusive means response in the unintended direction; inactive means score below 0.9.
# Molecular target: human Endothelin Receptor Type B (ETB), EDNRB (gene 1910) (UniProt P24530)
# Assay: NVS_GPCR_hETB: NovaScreen (NVS) G Protein-Coupled Receptor Assay for human Endothelin Receptor Type B (ETB) (AID 2283267)
# Method in brief: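 Human astrocytoma cell membranes; radioligand competitive binding read by filter scintillation counting 4 hours after dosing. Single-concentration duplicate screen at 25 uM, then singleton concentration-response up to 50 uM; loss of signal versus DMSO.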
SMILES,AC50,outcome
O=[N+]([O-])c1c(Cl)c(Cl)c(Cl)c(Cl)c1Cl,inconclusive: 25 µM,
C[C@]12C=CC3=C4CCC(=O)C=C4CC[C@H]3[C@@H]1CC[C@@H]2O,,inactive
CCCCN(CCCC)SN(C)C(=O)Oc1cccc2c1OC(C)(C)C2,,inactive
CCOP(=S)(OCC)SCSCC,inconclusive: 25 µM,
CC(C)Oc1cccc(NC(=O)c2ccccc2C(F)(F)F)c1,inconclusive: 44.5 µM,
CCCCCCCc1ccc(O)cc1,inconclusive: 25 µM,
Cc1c(COC(=O)[C@@H]2[C@H](/C=C(\Cl)C(F)(F)F)C2(C)C)cccc1-c1ccccc1,inconclusive: 25 µM,
OCCCBr,,inactive
CC(c1ccc(O)cc1)(c1ccc(O)cc1)c1ccc(O)cc1,inconclusive: 25 µM,

# Molecular target: human Histamine 1 Receptor (H1), HRH1 (gene 3269) (UniProt P35367)
# Assay: NVS_GPCR_hH1: NovaScreen (NVS) G Protein-Coupled Receptor Assay for human Histamine 1 Receptor (H1) (AID 2283268)
# Method in brief: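 Cell-free radioligand displacement at human H1 receptor, 1 h, filter scintillation counting; primary screen 25 uM in duplicate, hits in concentration series; loss of binding fitted vs DMSO.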
SMILES,AC50,outcome
CO/C=C(/C(=O)OC)c1ccccc1Oc1cc(Oc2ccccc2C#N)ncn1,inconclusive: 1.72 µM,
COP(=S)(OC)SCn1nnc2ccccc2c1=O,,inactive
CCOP(=S)(Oc1ccc([N+](=O)[O-])cc1)c1ccccc1 (stereo not drawn),inconclusive: 15.5 µM,

# Molecular target: D(1A) dopamine receptor (Homo sapiens) (UniProt P21728)
# Assay: NVS_GPCR_hDRD1: NovaScreen (NVS) G Protein-Coupled Receptor Assay for human Dopamine Receptor D1 (DRD1) (AID 2283269)
# Method in brief: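 HEK293-derived receptor preparation; radioligand competitive displacement; 1 h; filtration + scintillation counting. DMSO = negative control/baseline. Primary: 25 uM, duplicate; secondary: concentration–response for actives.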
SMILES,AC50,outcome
C/C(=N\NC(=O)Nc1cc(F)cc(F)c1)c1ncccc1C(=O)O,inconclusive: 0.376 µM,
CCN(N=O)C(N)=O,inconclusive: 27.5 µM,
N#Cc1ccccc1N,,inactive
CCCCCCCCCCBr,,inactive
C[As+](C)(C)CC(=O)[O-],inconclusive: 0.682 µM,
CC(Cl)CN(C)C (stereo not drawn),inconclusive: 25 µM,
Cc1cc(Cl)ccc1O[C@H](C)C(=O)O,inconclusive: 0.04 µM,
Oc1c(I)cc(I)cc1I,,inactive
O=c1ssc(Cl)c1Cl,active: 1.21 µM,
CCC(C)(c1ccc(O)cc1)c1ccc(O)cc1,active: 11.3 µM,
CCC(C)(C#N)N=NC(C)(C#N)CC (stereo not drawn),inconclusive: 6.86 µM,

# Reprinted from above (three entries):
SMILES,AC50,outcome
Oc1c(I)cc(I)cc1I,,inactive
O=c1ssc(Cl)c1Cl,active: 1.21 µM,
CCC(C)(c1ccc(O)cc1)c1ccc(O)cc1,active: 11.3 µM,

# Molecular target: human Leukotriene B4 Receptor 1 (LTB4-BLT1), LTB4R (gene 1241) (UniProt Q15722)
# Assay: NVS_GPCR_hLTB4_BLT1: NovaScreen (NVS) G Protein-Coupled Receptor Assay for human Leukotriene B4 Receptor 1 (LTB4-BLT1) (AID 2283271)
# Method in brief: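 Radioligand displacement binding on receptor extracted from human neutrophils, cell-free, 1 h after dosing; filter-based scintillation counting. Primary screen in duplicate at 25 uM, actives retested in concentration-response up to 50 uM; loss of signal versus DMSO.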
SMILES,outcome,AC50
C[C@]12C=CC3=C4CCC(=O)C=C4CC[C@H]3[C@@H]1CC[C@@H]2O,inactive,
CC(C)(C)c1cc(O)ccc1O,inactive,
CN(C)CCO,,inconclusive: 25 µM
Oc1c(Cl)c(Cl)c(Cl)c(Cl)c1Cl,,inconclusive: 12.8 µM
CCOc1nc(F)cc2nc(S(=O)(=O)Nc3c(Cl)cccc3Cl)nn12,,inconclusive: 7.99 µM
OCCCBr,,inconclusive: 0.172 µM
COc1ccc(C(=CC(=O)N2CCOCC2)c2ccc(Cl)cc2)cc1OC,inactive,

# Molecular target: Muscarinic acetylcholine receptor M3 (Homo sapiens) (UniProt P20309)
# Assay: NVS_GPCR_hM3: NovaScreen (NVS) G Protein-Coupled Receptor Assay for human Muscarinic, M3 Receptor (AID 2283272)
# Method in brief: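 Radioligand displacement binding on human M3 receptor in CHO-derived membranes, 1 h incubation, filter-based scintillation counting. Primary screen in duplicate at 25 uM; actives followed up in concentration series; loss of signal versus DMSO.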
row,SMILES,AC50
1,O=C(Nc1ccc2[nH]ccc2c1)c1cc2cc(F)ccc2n1Cc1cccc(F)c1,inconclusive: 0.838 µM
2,CCCCCCCCCCCCCN1CC(C)OC(C)C1 (stereo not drawn),inconclusive: 6.14 µM
3,Clc1cccc(Cl)c1,inconclusive: 25 µM
